In publication PMC5871334:
These are yes or no findings as the source states them, for the method shown. Binding seen in cells or lysates may run through a third protein.

The chains behind the UniProt entries cited, without tags or fusion partners.
UniProt Q00987: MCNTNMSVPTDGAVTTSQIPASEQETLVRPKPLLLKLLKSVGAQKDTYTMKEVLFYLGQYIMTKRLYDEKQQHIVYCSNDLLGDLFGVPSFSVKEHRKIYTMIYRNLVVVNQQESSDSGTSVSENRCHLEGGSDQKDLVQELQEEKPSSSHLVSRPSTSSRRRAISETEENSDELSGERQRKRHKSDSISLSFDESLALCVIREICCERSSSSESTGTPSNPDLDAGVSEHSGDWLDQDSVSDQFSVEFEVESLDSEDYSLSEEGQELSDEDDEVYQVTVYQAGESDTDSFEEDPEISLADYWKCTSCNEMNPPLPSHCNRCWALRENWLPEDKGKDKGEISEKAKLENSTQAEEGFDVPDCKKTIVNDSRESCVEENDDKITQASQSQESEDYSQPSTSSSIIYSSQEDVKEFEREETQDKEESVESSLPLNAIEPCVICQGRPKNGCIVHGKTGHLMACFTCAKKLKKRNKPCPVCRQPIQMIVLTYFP

Target: HA-MDM2 (human) (UniProt Q00987)
Experiment: co-IP; HCT116 p53-/- cells transfected with tagged proteins for 48 hr; lysates immunoprecipitated with anti-Flag or anti-HA antibody, western blot

binding: no binding
Substance: Myc-SPIN1 (from UniProt Q9Y657 1-262)
